The list shows a part of the results.
Key:
Assay in all cases: glycan array binding signal (z-score within array); higher = stronger binding
Conditions in all cases: glycan notation: IUPAC condensed, linker removed
[1] = target: Neu5Gc(a2-8)Neu5Gc(a2-3)Gal(b1-4)GlcNAc(b1-3)Gal(b1-4)GlcNAc
Summary of the method: (§1)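 Negative Z-scores can be read as non-binding. The Z-score is calculated within each array and then averaged across arrays of one protein sequence at different concentrations or buffers and across linkers. Arrays, 3228 in all, were curated from the Consortium for Functional Glycomics database and kept only where the protein sequence was available.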

[2] = target: Neu5Gc(a2-8)Neu5Gc(a2-6)Gal(b1-4)GlcNAc
Summary of the method: as §1

[3] = target: Neu5Gc(b2-6)Gal(b1-4)GlcNAc
Summary of the method: as §1

B1: DCIR1 (Mus musculus), Q9QZ15 (protein)
chain: MASEITYAEVKFKNESNSLHTYSESPAAPREKPIRDLRKPGSPSLLLTSLMLLLLLLAITFLVAFIIYFQKYSQLLEEKKAAKNIMHNELNCTKSVSPMEDKVWSCCPKDWRLFGSHCYLVPTVSSSASWNKSEENCSRMGAHLVVIQSQEEQDFITGILDTHAAYFIGLWDTGHRQWQWVDQTPYEESITFWHNGEPSSGNEKCATIIYRWKTGWGWNDISCSLKQKSVCQMKKINL
glycan array binding signal (z-score) [1]: -1.03
glycan array binding signal (z-score) [2]: -0.802
glycan array binding signal (z-score) [3]: -0.579

Source: the supplement of paper PMC8728848
